Experimental data taken from patent publication US20170233409A1, “TYPE IV SECRETION SYSTEM INHIBITORS” (priority 2016, published 2017).

Test system: cag T4SS
Type: cell-based, H. pylori
Conditions: 4.5 h co-culture; variable slope four parameter fit

Going from `O=C(O)[C@@H]1CSc2c(C3CC3)c(Cc3cccc4ccccc34)cc(=O)n21` [Compound C10, (3R)-8-cyclopropyl-7-(naphthalen-1-ylmethyl)-5-oxo-3,5-dihydro-2H-thiazolo[3,2-a]pyridine-3-carboxylic acid] to `COc1ccc(Cc2cc(=O)n3c(c2C2CC2)SC[C@H]3C(=O)O)c2ccccc12` [KSK85, (3R)-7-[(4-methoxynaphthalen-1-yl)methyl]-8-cyclopropyl-5-oxo-2,3-dihydro-5H-[1,3]thiazolo[3,2-a]pyridine-3-carboxylic acid], the “HillSlope, attenuation of cag T4SS-dependent IL-8 secretion” value rises from −1.49 to −1.23.

`O=C(O)[C@@H]1CSc2c(C3CC3)c3cn(-c4ccccc4)cc3c(=O)n21` [GKP42, (3R)-9-cyclopropyl-5-oxo-7-phenyl-2,3,5,7-tetrahydropyrrolo[3,4-d][1,3]thiazolo[3,2-a]pyridine-3-carboxylic acid] was tested, and the “HillSlope, attenuation of cag T4SS-dependent IL-8 secretion” value was −3.12.
